Laboratory results from the supplement of paper PMC10849652.
The list shows a part of the results.

Amino acid sequences for entries named in this document (tags omitted). A change or cut given only in a name is not applied to a line headed by its entry.
UniProt Q5H9R7: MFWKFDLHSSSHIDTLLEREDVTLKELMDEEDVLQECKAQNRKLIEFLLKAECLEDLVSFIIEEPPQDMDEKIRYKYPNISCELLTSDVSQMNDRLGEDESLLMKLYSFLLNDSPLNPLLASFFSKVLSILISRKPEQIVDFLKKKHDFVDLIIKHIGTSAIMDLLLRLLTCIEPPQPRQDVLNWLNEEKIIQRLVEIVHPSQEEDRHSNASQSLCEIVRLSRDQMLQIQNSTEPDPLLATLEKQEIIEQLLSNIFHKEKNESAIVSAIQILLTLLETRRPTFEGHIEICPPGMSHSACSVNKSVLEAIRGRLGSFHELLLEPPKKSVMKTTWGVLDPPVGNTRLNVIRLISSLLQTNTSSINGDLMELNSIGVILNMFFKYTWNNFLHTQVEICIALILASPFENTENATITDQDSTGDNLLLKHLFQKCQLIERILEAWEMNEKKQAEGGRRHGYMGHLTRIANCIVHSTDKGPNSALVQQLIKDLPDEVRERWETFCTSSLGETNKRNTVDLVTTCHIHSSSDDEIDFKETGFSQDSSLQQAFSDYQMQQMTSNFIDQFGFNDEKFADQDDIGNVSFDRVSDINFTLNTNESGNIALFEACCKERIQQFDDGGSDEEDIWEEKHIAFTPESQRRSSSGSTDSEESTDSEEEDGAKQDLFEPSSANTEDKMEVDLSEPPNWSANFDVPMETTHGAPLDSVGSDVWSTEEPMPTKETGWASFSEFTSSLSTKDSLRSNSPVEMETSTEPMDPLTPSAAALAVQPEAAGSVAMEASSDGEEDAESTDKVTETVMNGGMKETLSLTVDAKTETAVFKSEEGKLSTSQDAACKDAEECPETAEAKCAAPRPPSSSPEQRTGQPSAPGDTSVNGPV
UniProt Q13427: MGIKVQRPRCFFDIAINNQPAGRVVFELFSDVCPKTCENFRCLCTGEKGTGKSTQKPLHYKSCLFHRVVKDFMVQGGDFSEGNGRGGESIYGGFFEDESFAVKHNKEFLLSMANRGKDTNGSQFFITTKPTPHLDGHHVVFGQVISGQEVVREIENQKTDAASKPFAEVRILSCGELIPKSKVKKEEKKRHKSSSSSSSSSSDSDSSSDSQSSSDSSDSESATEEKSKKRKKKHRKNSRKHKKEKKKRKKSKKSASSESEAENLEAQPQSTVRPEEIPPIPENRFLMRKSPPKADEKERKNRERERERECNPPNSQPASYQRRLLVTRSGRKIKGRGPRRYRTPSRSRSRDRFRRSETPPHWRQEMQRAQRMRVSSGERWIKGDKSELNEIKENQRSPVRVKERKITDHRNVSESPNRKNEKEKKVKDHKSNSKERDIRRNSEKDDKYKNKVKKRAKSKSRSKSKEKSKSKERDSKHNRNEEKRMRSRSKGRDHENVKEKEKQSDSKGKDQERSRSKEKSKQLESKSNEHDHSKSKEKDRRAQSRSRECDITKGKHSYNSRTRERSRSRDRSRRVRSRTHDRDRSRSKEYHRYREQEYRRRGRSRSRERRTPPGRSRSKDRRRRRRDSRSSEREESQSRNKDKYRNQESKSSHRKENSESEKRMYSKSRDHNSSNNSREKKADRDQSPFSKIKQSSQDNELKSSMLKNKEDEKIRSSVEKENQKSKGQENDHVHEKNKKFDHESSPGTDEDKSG
UniProt O60437: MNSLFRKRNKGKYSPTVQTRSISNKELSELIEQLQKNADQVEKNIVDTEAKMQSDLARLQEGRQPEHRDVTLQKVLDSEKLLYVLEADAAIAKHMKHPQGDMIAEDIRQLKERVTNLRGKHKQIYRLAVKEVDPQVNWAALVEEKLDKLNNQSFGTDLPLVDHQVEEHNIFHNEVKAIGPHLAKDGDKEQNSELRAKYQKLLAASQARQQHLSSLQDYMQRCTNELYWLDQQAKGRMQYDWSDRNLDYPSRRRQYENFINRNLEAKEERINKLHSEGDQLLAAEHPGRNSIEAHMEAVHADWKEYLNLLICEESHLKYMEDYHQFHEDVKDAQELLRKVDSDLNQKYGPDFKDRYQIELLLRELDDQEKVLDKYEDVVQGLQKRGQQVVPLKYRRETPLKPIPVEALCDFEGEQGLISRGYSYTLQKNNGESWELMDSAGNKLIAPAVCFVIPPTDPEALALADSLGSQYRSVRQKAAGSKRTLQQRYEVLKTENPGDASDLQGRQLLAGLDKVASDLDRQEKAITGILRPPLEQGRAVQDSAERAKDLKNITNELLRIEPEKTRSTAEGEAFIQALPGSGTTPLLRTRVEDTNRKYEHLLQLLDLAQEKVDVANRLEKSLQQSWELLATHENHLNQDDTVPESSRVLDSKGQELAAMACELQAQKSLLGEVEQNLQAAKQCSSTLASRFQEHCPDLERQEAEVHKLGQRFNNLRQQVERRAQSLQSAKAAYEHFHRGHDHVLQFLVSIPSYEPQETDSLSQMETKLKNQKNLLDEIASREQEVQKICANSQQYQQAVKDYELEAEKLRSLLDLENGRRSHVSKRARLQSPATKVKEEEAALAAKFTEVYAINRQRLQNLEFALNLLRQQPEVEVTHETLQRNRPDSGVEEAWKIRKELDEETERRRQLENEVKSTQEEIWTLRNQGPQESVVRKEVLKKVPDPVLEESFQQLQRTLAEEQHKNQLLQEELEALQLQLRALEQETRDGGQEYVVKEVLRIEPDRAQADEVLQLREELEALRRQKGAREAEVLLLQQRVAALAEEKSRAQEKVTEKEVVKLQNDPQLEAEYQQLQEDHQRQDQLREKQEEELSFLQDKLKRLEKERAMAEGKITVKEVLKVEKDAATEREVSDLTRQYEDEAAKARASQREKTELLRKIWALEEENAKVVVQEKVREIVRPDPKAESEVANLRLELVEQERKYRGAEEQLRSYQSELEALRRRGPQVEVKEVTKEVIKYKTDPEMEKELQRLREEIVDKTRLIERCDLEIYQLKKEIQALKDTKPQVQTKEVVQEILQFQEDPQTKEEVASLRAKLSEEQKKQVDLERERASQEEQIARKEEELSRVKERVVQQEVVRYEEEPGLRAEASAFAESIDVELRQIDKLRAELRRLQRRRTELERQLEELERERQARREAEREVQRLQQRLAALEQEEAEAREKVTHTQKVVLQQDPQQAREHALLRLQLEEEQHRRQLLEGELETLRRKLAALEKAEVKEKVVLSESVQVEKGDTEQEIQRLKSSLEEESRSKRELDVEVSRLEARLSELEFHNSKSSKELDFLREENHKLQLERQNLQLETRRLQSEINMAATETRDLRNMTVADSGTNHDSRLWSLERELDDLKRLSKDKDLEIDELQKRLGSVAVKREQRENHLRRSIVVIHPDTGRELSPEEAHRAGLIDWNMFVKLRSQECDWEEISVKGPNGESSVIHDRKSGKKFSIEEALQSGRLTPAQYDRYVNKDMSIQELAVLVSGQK
UniProt P13727: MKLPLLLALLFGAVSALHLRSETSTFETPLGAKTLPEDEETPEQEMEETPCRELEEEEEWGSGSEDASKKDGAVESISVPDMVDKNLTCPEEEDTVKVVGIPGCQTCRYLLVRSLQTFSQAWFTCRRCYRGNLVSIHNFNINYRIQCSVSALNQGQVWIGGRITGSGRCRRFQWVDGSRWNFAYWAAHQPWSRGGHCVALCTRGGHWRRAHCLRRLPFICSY

What was measured:
Assay in all cases: log2 fold change, soluble protein after heating vs DMSO (PISA); higher = thermal stabilisation; K562 lysate, 10 uM; active = over 0.2 and 3.5 SD of the protein, either way, in both replicates (recomputed)
[1] = compound: c1ccc([C@@H]2C[C@H]2NC2CCNCC2)cc1
In short: (§1)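 Following dounce homogenisation of K562 pellets in PBS pH 7.4 with 1 mM MgCl2, crude extract at 1 mg/mL protein was incubated for 30 min with 10 μM compound. Aliquots were then heated for 3 min over 48°C-58°C and pooled, NP-40 was added to 0.5% at 4°C, and soluble protein was recovered as the supernatant at 21,000xg for 90 min. Channel-sum-equalised TMTpro 16plex LC-MS/MS quantified this protein. Each value, from duplicates, is a log-two fold change in thermal stability relative to solvent controls.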

[2] = compound: C1=CC=C(C=C1)[C@H](COC2=CC3=C(C=C2)NC(=O)N3)NC(=O)C4=CC=CN(C4=O)CC5=CC(=C(C=C5)F)F
In short: as §1

[3] = compound: CC1=C(SC2=C1C(=N[C@H](C3=NN=C(N32)C)CC(=O)N)C4=CC=C(C=C4)Cl)C
In short: as §1

[4] = compound: CC1=C2C(=CC=C1)N=C(N(C2=O)C3=CC=CC=C3C)CN4C=NC5=C(N=CN=C54)N
In short: as §1

[5] = compound: Cc1sc2c(c1C)C(c1ccc(Cl)cc1)=N[C@@H](CC(=O)OC(C)(C)C)c1nnc(C)n1-2
In short: as §1

Target	log2 fold change [1]	log2 fold change [2]	log2 fold change [3]	log2 fold change [4]	log2 fold change [5]
PPP6R3 isoform 6 (UniProt Q5H9R7)	inactive: -0.02				
PPIG (UniProt Q13427)	inactive: 0.021	inactive: -0.045	inactive: 0.073	inactive: 0.027	inactive: 0.039
PPL (UniProt O60437)		inactive: -0.225	inactive: 0.169		inactive: -1.74
PRG2 (UniProt P13727)					inactive: -0.112
